Measurements taken from the supplement of paper PMC12542422.
Structures can show the parent of a compound that is named as a salt. ± gives the standard deviation of the averaged measurements. The list shows a part of the results. Values are raw readings; no control value is given beside them.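 Across three biological replicates, HeLa cells were imaged for ribosome assembly using ENP1 staining (export block present or absent) or inducible tagged ribosomal protein reporters. Machine learning classified each cell's signal localization relative to DMSO controls. Hits exceeded the DMSO false-positive mean by five standard deviations and were then visually confirmed.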

Test system: HeLa K (ENP1 immunofluorescence, +LMB)
Test: fraction of cells with nucleolar or nucleolar/nucleoplasmic ENP1 signal (MainHitrate); higher = more cells with nucleolar/nuclear readout signal (for ENP1 -LMB: less RNAPI inhibition; for +LMB ENP1 and RP reporters: stronger nuclear/nucleolar retention, i.e. ribosome biogenesis defect)
Conditions: concentration: 1 µM; treatment time: 6 h; ENP1 +LMB; leptomycin B: 20 nM, last 1.5 h

Compound	fraction
O=C(C1CCCCC1)N1CC(=O)N2CCc3ccccc3C2C1 (configuration not stated) [Praziquantel (Biltricide)]	0.0629 ± 0.04
NC[C@H]1O[C@H](O[C@H]2[C@H](O)[C@@H](O[C@H]3O[C@H](CO)[C@@H](O)[C@H](N)[C@H]3O)[C@H](N)C[C@@H]2N)[C@H](N)[C@@H](O)[C@@H]1O [Bekanamycin]	0.141 ± 0.17
NS(=O)(=O)c1cc2c(cc1Cl)NC(C(Cl)Cl)NS2(=O)=O (configuration not stated) [Trichlormethiazide (Achletin)]	0.0563 ± 0.035
NC(CO)(CO)CO [Trometamol]	0.0867 ± 0.13
CCCNC(C)C(=O)Nc1c(C)csc1C(=O)OC (configuration not stated) [Articaine HCl]	0.0951 ± 0.13
[O-][n+]1cccc(CO)c1 [Mepiroxol]	0.0795 ± 0.089
O=c1[nH]cnc2c1ncn2[C@H]1CC[C@@H](CO)O1 [Didanosine (Videx)]	0.0788 ± 0.043
OC(Cn1cncn1)(Cn1cncn1)c1ccc(F)cc1F [Fluconazole]	0.0477 ± 0.037
CCOC(=O)CC(=O)N1CCSC1COc1ccccc1OC (configuration not stated) [Moguisteine]	0.128 ± 0.18
CCCCCCNC(=O)n1cc(F)c(=O)[nH]c1=O [Carmofur]	0.0622 ± 0.011
Cc1cc(-n2c(=O)[nH]c(=O)n(C)c2=O)ccc1Oc1ccc(SC(F)(F)F)cc1 [toltrazuril]	0.0309 ± 0.031
O=c1ccn([C@@H]2O[C@H](CO)[C@@H](O)[C@H]2O)c(=O)[nH]1 [Uridine]	0.135 ± 0.19
CCc1cc(C(N)=S)ccn1 [Ethionamide]	0.0735 ± 0.094
CC(C)NC[C@H](O)COc1ccc(CCOCC2CC2)cc1 [Levobetaxolol HCl]	0.0422 ± 0.056
COc1cnc(NS(=O)(=O)c2ccc(N)cc2)nc1 [Sulfameter (Bayrena)]	0.103 ± 0.13
Cc1ccc2c(Cl)cc(Cl)c(O)c2n1 [Chlorquinaldol]	0.0785 ± 0.098
OC(CNCC(O)C1CCc2cc(F)ccc2O1)C1CCc2cc(F)ccc2O1 (configuration not stated) [Nebivolol (Bystolic)]	0.0658 ± 0.061
CC(C)NCC(O)COc1cccc2ccccc12 (configuration not stated) [Propranolol HCl]	0.0737 ± 0.1
COc1cc2nc(N3CCN(C(=O)C4COc5ccccc5O4)CC3)nc(N)c2cc1OC (configuration not stated) [Doxazosin mesylate]	0.109 ± 0.079

Compound	fraction
CCCN(CCC)CCc1cccc2c1CC(=O)N2 [Ropinirole HCl]	0.0904 ± 0.13
CC(=O)NC[C@H]1CN(c2ccc(N3CCOCC3)c(F)c2)C(=O)O1 [Linezolid (Zyvox)]	0.106 ± 0.12
CN1CCC[C@@H]1CCO[C@](C)(c1ccccc1)c1ccc(Cl)cc1 [Clemastine Fumarate]	0.123 ± 0.18
COc1ccccc1N1CCN(CCCNc2cc(=O)n(C)c(=O)n2C)CC1 [Urapidil HCl]	0.101 ± 0.14
CC(=O)Oc1cc2c(s1)CCN(C(C(=O)C1CC1)c1ccccc1F)C2 (configuration not stated) [Prasugrel (Effient)]	0.157 ± 0.15
CN(C)[C@@H]1C(O)=C(C(N)=O)C(=O)[C@@]2(O)C(O)=C3C(=O)c4c(O)cccc4[C@@](C)(O)[C@H]3[C@H](O)[C@@H]12 [Oxytetracycline dihydrate]	0.0778 ± 0.097
OC(CCN1CCCCC1)(c1ccccc1)c1ccccc1 [Pridinol Methanesulfonate]	0.23 ± 0.29
CCOC(=O)c1ccc(OC(=O)CCCCCNC(=N)N)cc1 [Gabexate mesylate]	0.0698 ± 0.071
N[C@@H]1CONC1=O [D-Cycloserine]	0.157 ± 0.23
C[C@H](N)[C@H](O)c1cccc(O)c1 [Metaraminol Bitartrate]	0.0852 ± 0.11
CC[C@@H]1C(=O)OC[C@@H]1Cc1cncn1C [Pilocarpine HCl]	0.0527 ± 0.064
CCOCC(O)COc1ccc(NC(=O)CC[S+](C)C)cc1 (configuration not stated) [Suplatast tosylate]	0.0999 ± 0.14
CC(C)(C)c1cc(C(C)(C)C)c(NC(=O)c2c[nH]c3ccccc3c2=O)cc1O [Ivacaftor (VX-770)]	0.0533 ± 0.03
CN(Cc1ccc(C(C)(C)C)cc1)Cc1cccc2ccccc12 [Butenafine HCl]	0.0538 ± 0.064
Cn1cnc([N+](=O)[O-])c1Sc1ncnc2[nH]cnc12 [Azathioprine (Azasan, Imuran)]	0.0554 ± 0.027
Cc1cc2nc3c(=O)[nH]c(=O)nc-3n(C[C@H](O)[C@H](O)[C@H](O)CO)c2cc1C [Riboflavin (Vitamin B2)]	0.137 ± 0.2
C/C(O)=C(\C#N)C(=O)Nc1ccc(C(F)(F)F)cc1 [Teriflunomide]	0.0488 ± 0.059
CC(=O)O[C@@]12CO[C@@H]1C[C@H](O)[C@@]1(C)C(=O)[C@H](O)C3=C(C)[C@@H](OC(=O)[C@H](O)[C@@H](NC(=O)OC(C)(C)C)c4ccccc4)C[C@@](O)([C@@H](OC(=O)c4ccccc4)[C@H]21)C3(C)C [Docetaxel (Taxotere)]	0.0995 ± 0.068

Given as comma-separated lines: part of the list above
Compound,fraction
N[C@@H]1CONC1=O [D-Cycloserine],0.157 ± 0.23
C[C@H](N)[C@H](O)c1cccc(O)c1 [Metaraminol Bitartrate],0.0852 ± 0.11
CC[C@@H]1C(=O)OC[C@@H]1Cc1cncn1C [Pilocarpine HCl],0.0527 ± 0.064
CCOCC(O)COc1ccc(NC(=O)CC[S+](C)C)cc1 (configuration not stated) [Suplatast tosylate],0.0999 ± 0.14
CC(C)(C)c1cc(C(C)(C)C)c(NC(=O)c2c[nH]c3ccccc3c2=O)cc1O [Ivacaftor (VX-770)],0.0533 ± 0.03
CN(Cc1ccc(C(C)(C)C)cc1)Cc1cccc2ccccc12 [Butenafine HCl],0.0538 ± 0.064
"Cn1cnc([N+](=O)[O-])c1Sc1ncnc2[nH]cnc12 [Azathioprine (Azasan, Imuran)]",0.0554 ± 0.027
Cc1cc2nc3c(=O)[nH]c(=O)nc-3n(C[C@H](O)[C@H](O)[C@H](O)CO)c2cc1C [Riboflavin (Vitamin B2)],0.137 ± 0.2
C/C(O)=C(\C#N)C(=O)Nc1ccc(C(F)(F)F)cc1 [Teriflunomide],0.0488 ± 0.059
